Measured values as given in patent US11051513B2, “Pyridone compounds and agricultural and horticultural fungicides containing the same as active ingredients” (MITSUI CHEMICALS AGRO, INC., priority 2017, dated 2021).
Some entries share one result that the patent states for a list of compounds.

Experiments:
[1] = test system: Blumeria graminis f. sp. hordei; assay: Test Example D: Powdery mildew on barley; conditions: 250 ppm sprayed (2.5 ml/pot) on barley (Akashinriki); disease development 6 to 10 days after inoculation
Magnaporthe grisea = format: in vivo; conditions: 250 ppm sprayed (2.5 ml/pot) on rice (Sachikaze); disease development 6 to 10 days after inoculation
[2] = test system: Colletotrichum orbiculare; assay: Test Example H: Anthracnose on cucumber; conditions: 250 ppm sprayed (2.5 ml/pot) on cucumber (Sagami Hanjiro); disease development 6 to 10 days after inoculation
Puccinia recondita = assay: Test Example E: Brown rust on wheat; format: in vivo; conditions: 250 ppm sprayed (2.5 ml/pot) on wheat (Norin 61); disease development 7 to 10 days after inoculation
Alternaia brassicicola = assay: Test Example C: Alternaria sooty spot on cabbage; conditions: 250 ppm sprayed (2.5 ml/pot) on cabbage (Shikidori); disease development 2 to 3 days after inoculation
Botrytis cinerea = assay: Test Example B: Gray mold on tomato; conditions: 250 ppm sprayed (2.5 ml/pot) on tomato (Oogata Fukuju); disease development 2 to 3 days after inoculation

Measured: control value

CCn1c(-c2ccc(OC(C)C)cc2)c(-c2cc(F)cc(F)c2Cl)cc(Cl)c1=O [compound 194]
> 50%: [1] | Magnaporthe grisea

CCn1c(-c2cc(F)cc(F)c2)c(-c2cc(OC)ccc2Cl)cc(Cl)c1=O [compound 177]
not listed: [1]
> 50%: all other assays above

Cn1c(-c2ccc(C#N)cc2)c(-c2cc(F)cc(F)c2Cl)cc(Cl)c1=O [compound 321]
not listed: [1]
> 50%: all other assays above

Cn1c(-c2ccc(F)cc2)c(-c2ccc(F)cc2Cl)cc(Br)c1=O [compound 347]
not listed: [1]
> 50%: all other assays above

CCn1c(-c2ccc(F)cc2)c(-c2ccc(F)cc2Cl)ccc1=O [compound 350]
not listed: [1]
> 50%: all other assays above

CCn1c(-c2cc(F)c(OC)c(F)c2)c(-c2cc(F)ccc2Cl)cc(Br)c1=O [compound 188]
not listed: [1]
> 50%: all other assays above

CCOc1ccc(Cl)c(-c2cc(Cl)c(=O)n(CC)c2-c2ccc(F)cc2)c1 [compound 242]
not listed: [1]
> 50%: all other assays above

COc1ccc(Cl)c(-c2cc(Cl)c(=O)n(C)c2-c2ccc(F)cc2)c1 [compound 45]
not listed: [1]
> 50%: all other assays above

C#CCOc1ccc(-c2c(-c3cc(F)cc(F)c3Cl)cc(Br)c(=O)n2CC)cc1 [compound 456]
not listed: [1]
> 50%: all other assays above

CCn1c(-c2ccc(F)cc2)c(-c2ccccc2F)cc(Br)c1=O [compound 276]
not listed: [1]
> 50%: all other assays above

C#Cc1ccc(-c2c(-c3cc(F)cc(F)c3Cl)cc(Br)c(=O)n2CC)cc1 [compound 325]
not listed: [1]
> 50%: all other assays above

CCn1c(-c2ccc(F)cc2)c(-c2cccnc2Cl)cc(Br)c1=O [compound 289]
not listed: [1]
> 50%: all other assays above

COc1ccc(-c2c(-c3ccccc3Cl)ccc(=O)n2C)cc1 [compound 112]
not listed: [1]
> 50%: all other assays above

CSCOc1ccc(Cl)c(-c2cc(Br)c(=O)n(CC(F)F)c2-c2ccc(C#N)cc2)c1 [compound 455]
not listed: [1]
> 50%: all other assays above

CCn1c(-c2ccc(C#N)cc2)c(-c2cc(OCSC)ccc2Cl)cc(Br)c1=O [compound 453]
not listed: [1]
> 50%: all other assays above

CCn1c(-c2ccc(C#N)cc2)c(-c2cc(F)cc(F)c2Cl)cc(Br)c1=O [compound 320]
not listed: [1]
> 50%: all other assays above

CCn1c(-c2ccccc2)c(-c2cccc(F)c2Cl)cc(Cl)c1=O [compound 88]
not listed: [1]
> 50%: all other assays above

CCn1c(-c2ccc(C#N)cc2)c(-c2cccnc2Cl)cc(Br)c1=O [compound 402]
not listed: [1]
> 50%: all other assays above

COCCOc1ccc(Cl)c(-c2cc(Cl)c(=O)n(CC(F)F)c2-c2ccc(C#N)cc2)c1 [compound 446]
not listed: [1]
> 50%: all other assays above

CCn1c(-c2ccccc2)c(-c2cccc(OC)c2Cl)cc(Br)c1=O [compound 105]
not listed: [1]
> 50%: all other assays above

COc1ccc(-c2c(-c3ccccc3Cl)cc(Br)c(=O)n2C)cc1 [compound 163]
not listed: [1]
> 50%: all other assays above

COc1ccc(-c2c(-c3cc(F)cc(F)c3Cl)ccc(=O)n2C)cc1 [compound 37]
not listed: [1]
> 50%: all other assays above

Cn1c(-c2ccc(F)cc2)c(-c2cc(F)ccc2Cl)cc(Br)c1=O [compound 10]
not listed: [1]
> 50%: all other assays above

CCn1c(-c2ccc(F)cc2)c(-c2ccccc2I)cc(Cl)c1=O [compound 285]
not listed: [1]
> 50%: all other assays above

CCn1c(-c2ccccc2)c(-c2cc(OC)ccc2Cl)cc(Br)c1=O [compound 86]
not listed: [1]
> 50%: all other assays above

CCn1c(-c2ccc(F)cc2)c(-c2cccc(OC)c2Cl)cc(Br)c1=O [compound 95]
not listed: [1]
> 50%: all other assays above

C#Cc1ccc(-c2c(-c3cc(F)cc(F)c3Cl)cc(Cl)c(=O)n2C)cc1 [compound 327]
not listed: [1]
> 50%: all other assays above

Cn1c(-c2ccc(Cl)cc2)c(-c2ccccc2Cl)cc(Cl)c1=O [compound 141]
not listed: [1]
> 50%: all other assays above

CCCOc1ccc(Cl)c(-c2cc(Cl)c(=O)n(CC)c2-c2ccc(F)cc2)c1 [compound 243]
not listed: [1]
> 50%: all other assays above

Cc1ccc(-c2cc(Cl)c(=O)n(C)c2-c2ccc(F)cc2)c(Cl)c1 [compound 395]
not listed: [1]
> 50%: all other assays above

CCn1c(-c2ccc(F)cc2)c(-c2cc(OCSC)ccc2Cl)cc(Cl)c1=O [compound 257]
not listed: [1]
> 50%: all other assays above

CCn1c(-c2ccc(C#N)cc2)c(-c2cccnc2Cl)cc(Cl)c1=O [compound 404]
not listed: [1]
> 50%: all other assays above

COc1ccc(-c2c(-c3cccc(F)c3Cl)cc(Br)c(=O)n2C)cc1 [compound 64]
not listed: [1]
> 50%: all other assays above

CCn1c(-c2ccc(OC)cc2)c(-c2cc(OC)cc(OC)c2Cl)ccc1=O [compound 102]
not listed: [1]
> 50%: all other assays above

COc1ccc(-c2c(-c3cccc(F)c3Cl)ccc(=O)n2C)cc1 [compound 62]
not listed: [1]
> 50%: all other assays above

CCn1c(-c2cc(F)cc(F)c2)c(-c2cc(OC)ccc2Cl)cc(Br)c1=O [compound 178]
not listed: [1]
> 50%: all other assays above

Cn1c(-c2ccc(F)cc2)c(-c2cccc(F)c2Cl)cc(Br)c1=O [compound 60]
not listed: [1]
> 50%: all other assays above
